No constants are given. Whether binding was seen depends on the method and setting. For some assays here: Binding seen in cells or lysates may run through a third protein. Some results given as binding are weak or reduced against the parent protein; the word gives no strength. Sequences can lack the tags named with a protein.
T1: TRIM26-FL-Flag (Tripartite motif containing 26, full length, Flag-tagged) (human) (UniProt Q12899)
T1 sequence: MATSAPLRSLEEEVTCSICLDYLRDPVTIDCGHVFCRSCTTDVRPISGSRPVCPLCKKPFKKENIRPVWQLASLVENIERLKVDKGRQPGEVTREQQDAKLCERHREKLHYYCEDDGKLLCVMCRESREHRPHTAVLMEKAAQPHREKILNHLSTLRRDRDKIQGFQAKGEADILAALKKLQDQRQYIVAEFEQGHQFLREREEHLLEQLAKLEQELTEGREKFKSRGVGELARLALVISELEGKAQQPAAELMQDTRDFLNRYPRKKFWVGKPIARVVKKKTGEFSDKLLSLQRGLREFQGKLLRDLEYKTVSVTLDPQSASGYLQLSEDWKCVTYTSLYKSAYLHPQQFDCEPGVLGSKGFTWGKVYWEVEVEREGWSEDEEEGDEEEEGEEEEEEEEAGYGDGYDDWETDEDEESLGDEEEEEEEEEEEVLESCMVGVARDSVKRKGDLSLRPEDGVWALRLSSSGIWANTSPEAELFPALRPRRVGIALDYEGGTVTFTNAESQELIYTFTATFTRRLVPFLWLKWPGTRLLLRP

T2: TRIM26-HA-GST (not stated (human or mouse cDNA cloned)) (UniProt Q12899)
T2 sequence: T1 sequence

B1: CEBPD-FL-HA (CCAAT/enhancer binding protein delta, full length, HA-tagged) (protein, UniProt P49716 1-269)
chain: MSAALFSLDGPARGAPWPAEPAPFYEPGRAGKPGRGAEPGALGEPGAAAPAMYDDESAIDFSAYIDSMAAVPTLELCHDELFADLFNSNHKAGGAGPLELLPGGPARPLGPGPAAPRLLKREPDWGDGDAPGSLLPAQVAACAQTVVSLAAAGQPTPPTSPEPPRSSPRQTPAPGPAREKSAGKRGPDRGSPEYRQRRERNNIAVRKSRDKAKRRNQEMQQKLVELSAENEKLHQRVEQLTRDLAGLRQFFKQLPSPPFLPAAGTADCR
B2: CEBPD-His (protein, UniProt P49716 1-269)
chain: B1 chain

Key:
[1] = target: T1, TRIM26-FL-Flag (Tripartite motif containing 26, full length, Flag-tagged) (human); assay: co-IP; L02 cells transfected with TRIM26-Flag or CEBPD-HA plasmids; immunoblotting probed with anti-HA or anti-Flag antibody
[2] = target: T2, TRIM26-HA-GST (not stated (human or mouse cDNA cloned)); assay: pull-down; MagneGST Pull-Down System; GST fusion from Rosetta-DE3 on GST particles (1 h, 4 degrees Celsius), then incubated with the tagged partner for 5 h; eluted, western blot; purified GST as control; both purified

| binding [1] | binding [2] | Binder |
| --- | --- | --- |
| binds | – | B1 |
| – | binds | B2 |
